Assay results as given in paper PMC5309860 (2017).
These are yes or no findings as the source states them, for the method shown. In cells and extracts the contact can be indirect. Some results given as binding are weak or reduced against the parent protein; the word gives no strength. For some of these results: Where a sequence is shown, tags or fusion partners need not be part of it.

Chains of the proteins cited; added tags and fusions are not shown.
UniProt P25095: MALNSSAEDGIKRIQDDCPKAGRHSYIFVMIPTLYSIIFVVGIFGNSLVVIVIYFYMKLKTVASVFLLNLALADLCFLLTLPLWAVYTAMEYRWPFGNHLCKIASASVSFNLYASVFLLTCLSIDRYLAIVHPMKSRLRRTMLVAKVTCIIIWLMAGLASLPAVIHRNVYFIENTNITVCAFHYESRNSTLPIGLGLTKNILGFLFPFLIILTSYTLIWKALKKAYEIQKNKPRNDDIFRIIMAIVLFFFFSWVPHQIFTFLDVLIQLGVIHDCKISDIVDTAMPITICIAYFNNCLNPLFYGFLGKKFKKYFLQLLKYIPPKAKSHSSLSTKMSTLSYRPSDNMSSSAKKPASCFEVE
UniProt P49407: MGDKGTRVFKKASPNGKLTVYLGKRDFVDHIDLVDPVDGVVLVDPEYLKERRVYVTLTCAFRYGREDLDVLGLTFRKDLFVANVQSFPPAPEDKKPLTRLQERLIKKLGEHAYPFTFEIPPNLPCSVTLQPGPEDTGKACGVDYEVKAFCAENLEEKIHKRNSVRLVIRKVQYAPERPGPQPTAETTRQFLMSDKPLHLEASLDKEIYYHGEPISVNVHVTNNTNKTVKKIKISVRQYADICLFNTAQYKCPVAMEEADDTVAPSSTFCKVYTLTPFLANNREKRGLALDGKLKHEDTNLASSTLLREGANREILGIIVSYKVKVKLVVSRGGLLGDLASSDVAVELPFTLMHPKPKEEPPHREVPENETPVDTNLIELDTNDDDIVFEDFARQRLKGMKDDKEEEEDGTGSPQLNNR

Experiments:
Assay in all cases: co-IP; HEK293 cells co-transfected with Flag-AT1R-cherry, TRPC3-GFP (WT/truncations) and HA-β-arrestin-1 (WT/truncations/mutants); starved 12 h, stimulated 1 min with AngII (100 nM), TRV120055 (30 nM) or TRV120027 (100 nM); lysates precipitated with antibody-conjugated beads overnight at 4 °C, western …
Flag-AT1R-cherry = Flag-AT1R-cherry (UniProt P25095)
TRPC3-GFP (wild type) = target: T1, TRPC3-GFP (wild type) (UniProt Q13507)
T1 sequence: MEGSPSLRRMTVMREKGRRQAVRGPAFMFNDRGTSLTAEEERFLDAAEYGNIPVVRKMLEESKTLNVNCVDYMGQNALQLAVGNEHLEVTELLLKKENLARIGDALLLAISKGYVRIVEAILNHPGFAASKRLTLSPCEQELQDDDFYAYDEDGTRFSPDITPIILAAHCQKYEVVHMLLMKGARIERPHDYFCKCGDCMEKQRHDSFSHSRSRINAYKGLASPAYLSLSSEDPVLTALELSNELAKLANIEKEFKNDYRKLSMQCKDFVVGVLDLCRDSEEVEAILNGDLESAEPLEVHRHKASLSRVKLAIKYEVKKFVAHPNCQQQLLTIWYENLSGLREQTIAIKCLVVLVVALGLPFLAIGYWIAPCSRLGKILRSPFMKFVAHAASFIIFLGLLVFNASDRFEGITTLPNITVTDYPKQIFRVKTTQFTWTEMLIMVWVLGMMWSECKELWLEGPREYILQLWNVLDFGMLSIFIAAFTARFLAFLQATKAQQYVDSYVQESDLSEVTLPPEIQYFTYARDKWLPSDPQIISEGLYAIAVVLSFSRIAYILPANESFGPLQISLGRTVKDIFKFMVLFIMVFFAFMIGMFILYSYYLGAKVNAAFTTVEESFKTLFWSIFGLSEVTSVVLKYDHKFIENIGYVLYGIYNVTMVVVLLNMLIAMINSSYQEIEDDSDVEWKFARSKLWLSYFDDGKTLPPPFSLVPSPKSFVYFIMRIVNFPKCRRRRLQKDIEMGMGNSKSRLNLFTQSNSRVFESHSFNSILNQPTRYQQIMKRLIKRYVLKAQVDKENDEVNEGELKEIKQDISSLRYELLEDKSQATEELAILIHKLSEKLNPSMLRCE

TRPC3-GFP 178–848 = target: T2, TRPC3-GFP 178–848 (UniProt Q13507)
T2 sequence: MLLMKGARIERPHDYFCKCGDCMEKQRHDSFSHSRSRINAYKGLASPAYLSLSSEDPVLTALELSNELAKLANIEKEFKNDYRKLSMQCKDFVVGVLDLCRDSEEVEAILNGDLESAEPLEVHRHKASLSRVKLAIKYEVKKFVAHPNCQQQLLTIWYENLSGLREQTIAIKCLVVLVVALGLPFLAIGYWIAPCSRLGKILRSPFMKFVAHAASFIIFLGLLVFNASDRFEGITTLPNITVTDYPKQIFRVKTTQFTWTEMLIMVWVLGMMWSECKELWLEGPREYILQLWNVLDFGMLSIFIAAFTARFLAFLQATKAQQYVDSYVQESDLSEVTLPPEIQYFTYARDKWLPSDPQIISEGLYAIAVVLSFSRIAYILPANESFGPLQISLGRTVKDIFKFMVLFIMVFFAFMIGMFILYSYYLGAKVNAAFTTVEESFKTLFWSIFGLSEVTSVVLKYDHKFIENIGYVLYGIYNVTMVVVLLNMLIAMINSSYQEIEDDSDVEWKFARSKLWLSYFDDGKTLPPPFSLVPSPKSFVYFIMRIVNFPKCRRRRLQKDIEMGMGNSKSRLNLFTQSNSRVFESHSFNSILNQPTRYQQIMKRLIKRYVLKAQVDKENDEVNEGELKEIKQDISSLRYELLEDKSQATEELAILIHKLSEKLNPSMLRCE

TRPC3-GFP 73–848 = target: T3, TRPC3-GFP 73–848 (UniProt Q13507)
T3 sequence: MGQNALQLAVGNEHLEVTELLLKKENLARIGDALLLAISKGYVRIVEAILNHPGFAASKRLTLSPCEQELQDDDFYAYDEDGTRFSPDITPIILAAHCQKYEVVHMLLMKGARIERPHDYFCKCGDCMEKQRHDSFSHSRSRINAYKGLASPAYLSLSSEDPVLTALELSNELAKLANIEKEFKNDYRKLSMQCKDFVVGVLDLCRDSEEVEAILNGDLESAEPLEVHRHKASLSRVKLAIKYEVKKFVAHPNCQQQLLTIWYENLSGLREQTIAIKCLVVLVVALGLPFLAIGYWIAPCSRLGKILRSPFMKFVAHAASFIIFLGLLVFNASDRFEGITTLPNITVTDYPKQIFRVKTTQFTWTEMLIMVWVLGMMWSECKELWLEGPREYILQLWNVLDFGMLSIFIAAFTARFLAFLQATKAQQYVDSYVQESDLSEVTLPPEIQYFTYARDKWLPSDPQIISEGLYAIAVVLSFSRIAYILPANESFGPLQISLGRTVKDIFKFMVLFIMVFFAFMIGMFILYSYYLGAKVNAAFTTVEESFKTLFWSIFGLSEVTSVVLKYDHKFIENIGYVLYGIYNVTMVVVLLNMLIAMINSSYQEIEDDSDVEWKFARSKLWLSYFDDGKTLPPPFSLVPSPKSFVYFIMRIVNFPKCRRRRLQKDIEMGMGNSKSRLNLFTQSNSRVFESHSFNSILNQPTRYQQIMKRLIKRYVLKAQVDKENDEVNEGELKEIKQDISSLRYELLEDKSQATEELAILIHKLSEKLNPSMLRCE

Measured: binding

HA-β-arrestin-1 (wild type) (from UniProt P49407 1-418)
binds: Flag-AT1R-cherry | TRPC3-GFP (wild type) | TRPC3-GFP 178–848 | TRPC3-GFP 73–848
